Results reported in patent US20240180912A1, “COMPOSITIONS AND METHODS FOR INHIBITING CREATINE TRANSPORT AS A TREATMENT FOR CANCER” (Inspirna, Inc., priority 2021, published 2024).
At least one structure is not confirmed: it was looked up by name or label, or the drawing left a doubt.

Legend:
[1] = system: colon cancer cells; conditions: colon cancer cells in vitro and tumors in vivo
[2] = system: colon cancer, gastric cancer and pancreatic cancer tumors; assay: syngeneic and human xenograft mouse tumor models, primary tumor growth; type: in vivo; conditions: animal models, colorectal
Excerpt: . The tumors tested included both KRAS wild-type and KRAS mutant colon cancer cells, KRAS mutant/p53 mutant pancreatic cancer cells. […] . […] .

[3] = system: intracellular phosphocreatine, creatine and ATP; assay: metabolic profiling; type: cell-based
[4] = system: CLR30 KRAS G12R PDX; assay: CRC PDX tumor growth; type: in vivo, mouse; conditions: diet 800 mg/kg
[5] = system: NCI-H358 KRAS G12C xenografts; assay: NSCLC xenograft; conditions: 800 mg/kg chow
[6] = system: NCI-H460 KRAS Q61H xenografts; assay: NSCLC xenograft; conditions: 800 mg/kg chow
[7] = system: CLR24 KRAS G12C PDX; assay: CRC PDX tumor growth; type: in vivo, mouse; conditions: diet 800 mg/kg
[8] = system: liver metastasis; assay: liver metastasis formation; conditions: mouse, in vivo
[9] = system: CLR7 KRAS G12V PDX; assay: CRC PDX tumor growth; type: in vivo, mouse; conditions: diet 800 mg/kg
[10] = system: CT26 murine CRC cells; assay: CT26 subcutaneous tumor growth in syngeneic BALB/c mice; type: in vivo, mouse; conditions: 5-FU 30 mg/kg/week, irinotecan 15 mg/kg/week
[11] = system: HCT116 human CRC tumors; assay: HCT116 (KRAS G13D) xenograft; conditions: diet 800 mg/kg

## N=C(N)NCCC(=O)O [RGX-202, β-Guanidinoproprionic acid]
[1]
  intracellular creatine levels: reduction
[2]
  primary tumor growth of various gastrointestinal cancers: inhibits primary tumor growth
[3]
  intracellular phosphocreatine, creatine and ATP levels: suppressed
[4]
  tumor response: tumor regressions
[5]
  tumor growth: tumor growth inhibition
[6]
  tumor growth: tumor growth inhibition
[7]
  tumor response: tumor regressions
[8]
  liver metastasis formation: strongly suppressed liver metastasis formation
[9]
  tumor response: tumor regressions
[10]
  anti-tumor efficacy in combination with 5-FU and irinotecan: enhanced anti-tumor efficacy
[11]
  anti-tumor efficacy: Anti-tumor efficacy
